Reference: PMC6349404
These are yes or no findings as the source states them, for the method shown. For part of these data: Binding seen in cells or lysates may run through a third protein. Some binding calls cover weakened binding; strength is not graded here. For part of these data: Sequences can lack the tags named with a protein.

Chains of the proteins cited; added tags and fusions are not shown. Lines headed by an entry give the natural chain unless they say otherwise; changes in a name come on top. Residues count along the entry.
UniProt P02769, residues 25-607: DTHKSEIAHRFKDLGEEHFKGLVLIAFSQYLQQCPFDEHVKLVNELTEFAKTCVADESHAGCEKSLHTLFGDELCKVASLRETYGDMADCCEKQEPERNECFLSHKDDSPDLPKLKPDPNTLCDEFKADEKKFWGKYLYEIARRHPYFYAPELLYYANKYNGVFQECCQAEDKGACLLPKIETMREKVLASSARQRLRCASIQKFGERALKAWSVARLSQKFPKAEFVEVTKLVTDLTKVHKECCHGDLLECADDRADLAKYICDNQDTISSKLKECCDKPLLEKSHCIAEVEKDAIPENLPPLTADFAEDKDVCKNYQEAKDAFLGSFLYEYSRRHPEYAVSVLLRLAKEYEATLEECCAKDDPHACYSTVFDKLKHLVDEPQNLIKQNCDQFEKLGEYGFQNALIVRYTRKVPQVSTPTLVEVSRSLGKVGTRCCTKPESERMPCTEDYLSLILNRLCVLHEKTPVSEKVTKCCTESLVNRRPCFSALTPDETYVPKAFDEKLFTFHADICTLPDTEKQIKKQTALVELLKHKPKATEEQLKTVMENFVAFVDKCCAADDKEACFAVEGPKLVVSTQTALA
UniProt P61622: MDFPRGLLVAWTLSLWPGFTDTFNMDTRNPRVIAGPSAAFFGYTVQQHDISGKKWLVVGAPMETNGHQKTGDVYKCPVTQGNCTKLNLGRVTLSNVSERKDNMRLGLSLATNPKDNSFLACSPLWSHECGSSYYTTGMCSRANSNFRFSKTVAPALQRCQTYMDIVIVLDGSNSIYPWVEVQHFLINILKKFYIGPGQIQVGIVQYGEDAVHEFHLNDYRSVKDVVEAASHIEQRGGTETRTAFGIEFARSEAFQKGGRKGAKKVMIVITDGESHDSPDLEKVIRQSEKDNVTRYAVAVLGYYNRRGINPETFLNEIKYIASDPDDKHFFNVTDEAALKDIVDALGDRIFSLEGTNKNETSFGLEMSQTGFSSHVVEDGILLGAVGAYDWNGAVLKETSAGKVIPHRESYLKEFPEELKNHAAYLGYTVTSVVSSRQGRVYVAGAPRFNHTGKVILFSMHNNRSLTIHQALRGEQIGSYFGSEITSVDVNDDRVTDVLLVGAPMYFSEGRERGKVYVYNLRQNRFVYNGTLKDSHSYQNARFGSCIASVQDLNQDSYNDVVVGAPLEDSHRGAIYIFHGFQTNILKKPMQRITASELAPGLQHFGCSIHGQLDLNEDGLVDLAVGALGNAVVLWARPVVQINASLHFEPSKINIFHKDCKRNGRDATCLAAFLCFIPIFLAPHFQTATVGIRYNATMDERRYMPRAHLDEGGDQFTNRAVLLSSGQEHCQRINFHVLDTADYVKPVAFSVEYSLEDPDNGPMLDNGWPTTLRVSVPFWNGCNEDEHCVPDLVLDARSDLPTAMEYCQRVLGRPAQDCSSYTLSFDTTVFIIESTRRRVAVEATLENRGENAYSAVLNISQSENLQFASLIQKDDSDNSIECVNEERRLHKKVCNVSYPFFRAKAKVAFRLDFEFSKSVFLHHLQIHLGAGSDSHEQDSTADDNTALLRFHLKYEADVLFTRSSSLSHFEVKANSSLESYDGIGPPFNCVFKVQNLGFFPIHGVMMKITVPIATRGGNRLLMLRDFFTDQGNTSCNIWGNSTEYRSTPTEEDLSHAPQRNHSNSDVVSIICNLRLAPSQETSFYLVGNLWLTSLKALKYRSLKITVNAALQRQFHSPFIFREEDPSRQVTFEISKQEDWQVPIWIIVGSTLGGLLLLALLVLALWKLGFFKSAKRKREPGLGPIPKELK
UniProt Q9UKX5: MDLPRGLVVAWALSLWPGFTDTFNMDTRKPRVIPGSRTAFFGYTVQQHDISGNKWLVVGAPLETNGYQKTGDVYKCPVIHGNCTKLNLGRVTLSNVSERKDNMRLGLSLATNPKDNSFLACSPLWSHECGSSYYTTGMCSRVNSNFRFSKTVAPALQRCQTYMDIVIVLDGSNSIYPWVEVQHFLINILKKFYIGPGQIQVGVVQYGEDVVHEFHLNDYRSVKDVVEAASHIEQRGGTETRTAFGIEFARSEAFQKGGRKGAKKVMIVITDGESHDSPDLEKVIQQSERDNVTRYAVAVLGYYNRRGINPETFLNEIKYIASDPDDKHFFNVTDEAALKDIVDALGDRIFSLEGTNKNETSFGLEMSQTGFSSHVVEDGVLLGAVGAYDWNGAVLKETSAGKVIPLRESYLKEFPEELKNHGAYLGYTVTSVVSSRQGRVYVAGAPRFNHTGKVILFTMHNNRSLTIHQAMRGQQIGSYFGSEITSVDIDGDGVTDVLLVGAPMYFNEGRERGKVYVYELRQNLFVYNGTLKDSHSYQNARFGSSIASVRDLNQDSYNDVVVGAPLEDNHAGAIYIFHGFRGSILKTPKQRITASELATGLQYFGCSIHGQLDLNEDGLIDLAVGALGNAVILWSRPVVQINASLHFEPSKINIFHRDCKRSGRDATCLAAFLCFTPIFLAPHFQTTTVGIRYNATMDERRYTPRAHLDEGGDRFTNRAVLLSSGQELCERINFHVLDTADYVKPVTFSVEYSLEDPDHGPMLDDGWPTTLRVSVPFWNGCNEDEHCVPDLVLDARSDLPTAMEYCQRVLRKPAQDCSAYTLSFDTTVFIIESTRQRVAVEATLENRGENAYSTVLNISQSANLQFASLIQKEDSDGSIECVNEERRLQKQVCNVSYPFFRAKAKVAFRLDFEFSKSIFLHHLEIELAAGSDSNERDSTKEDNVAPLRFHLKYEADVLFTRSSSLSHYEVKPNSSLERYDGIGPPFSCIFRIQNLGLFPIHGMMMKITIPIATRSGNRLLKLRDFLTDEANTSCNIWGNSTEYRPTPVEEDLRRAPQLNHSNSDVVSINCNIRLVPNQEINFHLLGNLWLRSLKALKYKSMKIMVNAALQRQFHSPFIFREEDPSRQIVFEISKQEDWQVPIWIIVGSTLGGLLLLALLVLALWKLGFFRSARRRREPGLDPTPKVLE

How the values were obtained:
[1] = target: T1, Flag-tagged human Osteolectin expressed in MC3T3-E1 cells (human) (UniProt Q9Y240); test: co-IP; Flag-tagged human Osteolectin overexpressed in MC3T3-E1 cells for 48 hr; lysate (50 mM Tris-HCl, 150 mM NaCl, 1% NP-40, 0.5% sodium deoxycholate, 0.1% SDS) precipitated with anti-FLAG M2 Affinity Gel 2 hr at 4°C, washed six times; western blot for endogenous integrins
T1 sequence: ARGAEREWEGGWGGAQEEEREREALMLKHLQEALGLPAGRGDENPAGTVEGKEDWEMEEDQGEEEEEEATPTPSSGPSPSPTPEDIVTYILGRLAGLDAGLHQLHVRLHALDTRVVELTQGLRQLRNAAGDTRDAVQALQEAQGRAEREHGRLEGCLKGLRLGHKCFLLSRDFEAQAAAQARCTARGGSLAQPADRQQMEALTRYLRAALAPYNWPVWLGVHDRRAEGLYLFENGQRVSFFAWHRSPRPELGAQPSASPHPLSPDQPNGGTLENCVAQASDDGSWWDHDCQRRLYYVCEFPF

[2] = target: Bovine serum albumin (bovine) (UniProt P02769); test: ELISA; microtiter well binding assay; plates coated with 10 nM recombinant human Osteolectin, Pro-Collagen 1α or BSA overnight at 4°C, blocked with 10 mg/ml BSA; 6xHis tagged integrins in TBS (50 mM Tris-Cl pH 7.5, 150 mM NaCl) with 1 mM MnCl2; bound integrin detected with anti-His tag antibody and HRP secondary, OD 450 nm; both purified
[3] = target: T2, recombinant human Osteolectin (human) (UniProt Q9Y240); test: ELISA; microtiter well binding assay of integrin α11β1 on coated recombinant human Osteolectin in the presence of 200 nM RGDS peptide; both purified
T2 sequence: T1 sequence

| Substance | binding [1] | binding [2] | binding [3] |
| --- | --- | --- | --- |
| endogenous integrin α11β1 of MC3T3-E1 cells (from UniProt P61622 23-1188; P09055 21-798) (complex) | binds | – | – |
| recombinant human integrin α11β1 (from UniProt Q9UKX5 23-1141; P05556 21-728) (complex) | – | no binding | binds |
